Reference: article PMC5526866

Molecular target: T1, FLAG-tagged IRS2-WT (mouse) (UniProt P81122)
T1 sequence: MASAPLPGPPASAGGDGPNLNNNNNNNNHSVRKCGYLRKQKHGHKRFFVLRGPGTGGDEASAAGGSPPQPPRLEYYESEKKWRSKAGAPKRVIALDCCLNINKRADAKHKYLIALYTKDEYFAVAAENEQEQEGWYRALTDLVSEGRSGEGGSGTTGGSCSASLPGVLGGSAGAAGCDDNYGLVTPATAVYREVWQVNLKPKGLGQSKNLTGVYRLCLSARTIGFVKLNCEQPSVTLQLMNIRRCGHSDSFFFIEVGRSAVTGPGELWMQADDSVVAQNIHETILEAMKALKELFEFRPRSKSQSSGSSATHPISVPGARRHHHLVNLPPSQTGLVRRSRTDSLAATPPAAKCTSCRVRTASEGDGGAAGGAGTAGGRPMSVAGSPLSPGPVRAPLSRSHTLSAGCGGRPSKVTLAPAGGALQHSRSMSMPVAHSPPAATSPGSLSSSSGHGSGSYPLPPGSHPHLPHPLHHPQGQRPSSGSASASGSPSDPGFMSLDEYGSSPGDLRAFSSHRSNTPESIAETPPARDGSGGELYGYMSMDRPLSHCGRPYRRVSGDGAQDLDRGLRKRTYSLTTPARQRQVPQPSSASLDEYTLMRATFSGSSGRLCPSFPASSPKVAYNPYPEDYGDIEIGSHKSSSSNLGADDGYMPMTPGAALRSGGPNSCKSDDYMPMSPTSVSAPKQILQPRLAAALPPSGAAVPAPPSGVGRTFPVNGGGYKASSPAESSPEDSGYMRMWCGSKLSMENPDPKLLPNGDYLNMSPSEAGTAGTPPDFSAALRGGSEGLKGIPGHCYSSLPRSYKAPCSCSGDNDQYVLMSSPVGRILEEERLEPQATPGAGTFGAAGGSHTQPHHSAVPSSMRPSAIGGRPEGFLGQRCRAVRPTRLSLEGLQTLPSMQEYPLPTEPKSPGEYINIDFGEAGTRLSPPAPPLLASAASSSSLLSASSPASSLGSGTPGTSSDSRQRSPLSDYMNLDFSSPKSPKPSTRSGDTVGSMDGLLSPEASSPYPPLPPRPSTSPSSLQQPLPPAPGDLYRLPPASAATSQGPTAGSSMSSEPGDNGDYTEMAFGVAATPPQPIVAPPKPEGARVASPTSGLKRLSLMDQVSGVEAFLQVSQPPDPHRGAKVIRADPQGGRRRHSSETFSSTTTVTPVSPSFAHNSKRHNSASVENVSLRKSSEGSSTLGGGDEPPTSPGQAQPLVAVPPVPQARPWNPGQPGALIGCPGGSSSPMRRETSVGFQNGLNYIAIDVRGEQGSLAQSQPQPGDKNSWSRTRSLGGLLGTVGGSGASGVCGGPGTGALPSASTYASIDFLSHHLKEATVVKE
Test: far-Western, overlay or dot blot; purified IRS1/2-WT or mutants run on a Tris-acetate gel and transferred to a PVDF membrane, treated with 6 M guanidine-HCl and renatured; incubated with 5 µg IRβ in protein-binding buffer (100 mM NaCl, 20 mM Tris pH 7.6, 0.5 mM EDTA, 10% glycerol, 0.1% Tween-20, 2% skim milk, 1 mM DTT) for 16 h at 4 °C; detected with anti-IRβ; both purified

binding: binds
Substance: IRβ protein (used in solution in the far-Western blot) (receptor)

No constants are given. Whether binding was seen depends on the method and setting. Binding can be weak; no strength is given. Where a sequence is shown, tags or fusion partners need not be part of it.
